Consider 2 molecules from PMC1762330, “‘Fractional Recovery’ Analysis of a Presynaptic Synaptotagmin 1-Anchored Endocytic Protein Complex” (PLoS ONE, 2006).

Test [1] addresses T1, AP180 (rat (endogenous in rat brain synaptosomes)) (UniProt Q05140).
T1 sequence: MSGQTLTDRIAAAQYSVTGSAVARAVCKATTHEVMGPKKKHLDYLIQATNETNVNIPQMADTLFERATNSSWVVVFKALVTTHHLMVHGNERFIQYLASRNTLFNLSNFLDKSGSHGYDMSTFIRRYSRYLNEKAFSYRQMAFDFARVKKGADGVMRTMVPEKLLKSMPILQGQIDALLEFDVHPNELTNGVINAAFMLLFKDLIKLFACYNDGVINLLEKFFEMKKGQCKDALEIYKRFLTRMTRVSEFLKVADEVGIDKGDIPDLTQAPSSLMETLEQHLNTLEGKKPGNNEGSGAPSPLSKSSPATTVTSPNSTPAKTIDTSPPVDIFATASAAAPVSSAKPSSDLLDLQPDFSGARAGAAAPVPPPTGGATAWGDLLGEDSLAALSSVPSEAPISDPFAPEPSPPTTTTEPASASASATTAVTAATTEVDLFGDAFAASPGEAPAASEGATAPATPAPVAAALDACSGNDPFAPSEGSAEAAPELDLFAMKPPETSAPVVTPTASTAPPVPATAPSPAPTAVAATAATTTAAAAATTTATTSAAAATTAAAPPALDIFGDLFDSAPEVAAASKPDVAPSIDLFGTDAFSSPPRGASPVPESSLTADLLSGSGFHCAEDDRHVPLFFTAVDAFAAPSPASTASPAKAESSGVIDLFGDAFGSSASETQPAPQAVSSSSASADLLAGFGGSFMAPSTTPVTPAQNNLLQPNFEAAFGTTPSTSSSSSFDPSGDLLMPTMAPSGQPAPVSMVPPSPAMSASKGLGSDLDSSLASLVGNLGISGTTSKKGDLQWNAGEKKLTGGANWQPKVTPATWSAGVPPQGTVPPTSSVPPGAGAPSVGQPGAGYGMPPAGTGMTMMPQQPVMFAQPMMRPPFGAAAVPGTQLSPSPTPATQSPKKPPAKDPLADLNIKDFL
The test can be described thus: co-IP; fractional recovery: immunoprecipitate from rat brain synaptosome lysate on beads split in three aliquots, 15 min on ice in RIPA buffer with 150, 650 or 1150 mM total salt; what stayed on the beads found by Western blot and densitometry; FR = recovery at 1150 mM / recovery at 150 mM, normalised to the FR of the IP-protein.

Test [2] has as its target light chain clathrin (rat (endogenous in rat brain synaptosomes)). The test is described as above.

These are yes or no findings as the source states them, for the method shown. Binding seen in cells or lysates may run through a third protein. A result given as binding can be weak or reduced; the word gives no strength.

As for dynamin, the binding result in test [1] was “binds”.

B1: AP180 (protein, UniProt Q05140 1-915)
chain: MSGQTLTDRIAAAQYSVTGSAVARAVCKATTHEVMGPKKKHLDYLIQATNETNVNIPQMADTLFERATNSSWVVVFKALVTTHHLMVHGNERFIQYLASRNTLFNLSNFLDKSGSHGYDMSTFIRRYSRYLNEKAFSYRQMAFDFARVKKGADGVMRTMVPEKLLKSMPILQGQIDALLEFDVHPNELTNGVINAAFMLLFKDLIKLFACYNDGVINLLEKFFEMKKGQCKDALEIYKRFLTRMTRVSEFLKVADEVGIDKGDIPDLTQAPSSLMETLEQHLNTLEGKKPGNNEGSGAPSPLSKSSPATTVTSPNSTPAKTIDTSPPVDIFATASAAAPVSSAKPSSDLLDLQPDFSGARAGAAAPVPPPTGGATAWGDLLGEDSLAALSSVPSEAPISDPFAPEPSPPTTTTEPASASASATTAVTAATTEVDLFGDAFAASPGEAPAASEGATAPATPAPVAAALDACSGNDPFAPSEGSAEAAPELDLFAMKPPETSAPVVTPTASTAPPVPATAPSPAPTAVAATAATTTAAAAATTTATTSAAAATTAAAPPALDIFGDLFDSAPEVAAASKPDVAPSIDLFGTDAFSSPPRGASPVPESSLTADLLSGSGFHCAEDDRHVPLFFTAVDAFAAPSPASTASPAKAESSGVIDLFGDAFGSSASETQPAPQAVSSSSASADLLAGFGGSFMAPSTTPVTPAQNNLLQPNFEAAFGTTPSTSSSSSFDPSGDLLMPTMAPSGQPAPVSMVPPSPAMSASKGLGSDLDSSLASLVGNLGISGTTSKKGDLQWNAGEKKLTGGANWQPKVTPATWSAGVPPQGTVPPTSSVPPGAGAPSVGQPGAGYGMPPAGTGMTMMPQQPVMFAQPMMRPPFGAAAVPGTQLSPSPTPATQSPKKPPAKDPLADLNIKDFL
On to B1, for which the binding entry in test [2] is on record as “binds”.
